The text below walks through data of PubChem BioAssay AID292 (DTP/NCI, 2004).

The list is a part of this screen's results and no random one: it gathers tests that were run many times, whatever their T/C, doses with no T/C, and many T/C values between a quarter and a half above the control. Other doses and runs of a compound stand elsewhere. T/C is the treated group as % of the vehicle group. Some doses have a count of surviving animals in place of a T/C: the source holds a T/C of zero for them, seemingly a mark for toxic or unscored doses. Some survivor counts are full or nearly so, which does not show that the dose was tolerated: the source hardly ever lists a survival T/C far under the control, and the zero likely stands for such cases as well. Counts of survivors are from the toxicity check (mostly the fifth day) where no day follows; animals may have died later. Schedules are NCI's codes, read here as Q, the interval in days (D) or hours (H), X, the number of doses. Counts like (3×) say how often a value occurs here. For survival time, this PubChem deposit counts one and a half times the control or more as active, and values a quarter to a half above the control carry no call in these data; other NCI protocols may use other cut-offs. Some entries hold several experiments; the values are given in rising order.

The test system of this assay is B6C3F1 mice, ip Sarcoma M5076, median survival T/C. Kind of assay: NCI In Vivo Anticancer Drug Screen. Data for tumor model Sarcoma M5076 (intraperitoneal) in B6C3F1 mice. The settings on record: T/C endpoint: median survival time, schedule: Q04DX004 (ip), higher T/C = longer survival. The procedure, abridged: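 Mice carrying the transplanted tumour received compound treatment. Survival was recorded, and each value is the treated-group measurement divided by that of the vehicle-dosed control group.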

Setting [1] is: dose: 50.0 mg/kg/injection, vehicle: saline with Tween-80.
[2] abbreviates: dose: 100.0 mg/kg/injection, vehicle: saline with Tween-80.
The mark [3] stands for this setting: dose: 200.0 mg/kg/injection, vehicle: saline with Tween-80.
Setting [4] is: dose: 400.0 mg/kg/injection, vehicle: saline with Tween-80.
[5] abbreviates: dose: 150.0 mg/kg/injection, vehicle: saline with Tween-80.
Where [6] appears, read: dose: 600.0 mg/kg/injection, vehicle: saline with Tween-80.
Where [7] appears, read: dose: 100.0 mg/kg/injection, vehicle: saline.
The mark [8] stands for this setting: dose: 300.0 mg/kg/injection, vehicle: saline with Tween-80.
Where [9] appears, read: dose: 200.0 mg/kg/injection, vehicle: saline.
The mark [10] stands for this setting: dose: 100.0 mg/kg/injection, vehicle: Klucel (hydroxypropylcellulose) (HPC).
Setting [11] is: dose: 200.0 mg/kg/injection, vehicle: Klucel (hydroxypropylcellulose) (HPC).
[12] abbreviates: dose: 400.0 mg/kg/injection, vehicle: Klucel (hydroxypropylcellulose) (HPC).

Regarding `c1ccc2c(c1)[nH]c1c2c(N2CCOCC2)nn2cnnc12`, the survivor count was 10 of 10 on day 14 under setting [1], 8 of 10 on day 14 under setting [2], 9 of 10 on day 14 under setting [3] and 8 of 10 on day 14 under setting [4].

For `O=c1c2ccccc2nc(-c2ccccc2)n1-c1nccs1`, the survivor count under setting [1] is 10 of 10 on day 14 and the survivor count under setting [2] is 10 of 10 on day 14.

With `S=c1sc(-c2ccc(Cl)cc2)nn1CSc1nc2ccccc2o1`, the survivor count by setting is: (dose: 75.0 mg/kg/injection, vehicle: saline with Tween-80) 9 of 10 on day 14; under setting [5], 10 of 10 on day 14; under setting [6], 8 of 10 on day 14.

`Clc1ccc(CC(Cn2ccnc2)c2ccccc2Cl)cc1` (stereo unspecified): under “dose: 250.0 mg/kg/injection, vehicle: saline with Tween-80”, the survivor count is recorded as 7 of 10 on day 14.

For the compound `CCC(NC(N)=O)C(CC)NC(N)=O` (stereo unspecified), the survivor count under setting [1] is reported as 7 of 10 on day 14, the survivor count under setting [2] was 0 of 10 on day 14 and the survivor count under setting [3] is given as 1 of 10 on day 14.

Consider `Cc1nnc2c3nccnc3c(Cl)nn12`, for which, under “dose: 240.0 mg/kg/injection, vehicle: saline with Tween-80”, the survivor count is listed as 3 of 10 on day 14.

Consider `OCCN1CCN(CC/C=C2/c3ccccc3Sc3ccc(C(F)(F)F)cc32)CC1`, for which the survivor count under setting [7] was 0 of 10 on day 14.

Turning to `Clc1ccc(OCC(Cn2ccnc2)c2ccc(Cl)cc2)cc1` (stereo unspecified), the survivor count is, setting by setting: under setting [5], 8 of 10 on day 14; under setting [8], 1 of 10 on day 14.

Consider `Cc1ccc(/C=C2/N=C([Se])N(C)C2=O)cc1`, for which the survivor count under setting [8] was 8 of 10 on day 14 and the survivor count under setting [6] is 2 of 10 on day 14.

`CCCCCCCC(=O)[O][Hg][CH2]C1COC([CH2][Hg][O]C(=O)CCCCCCC)CO1` (stereo unspecified): the survivor count reads like this: (dose: 6.25 mg/kg/injection, vehicle: saline with Tween-80) 10 of 10 on day 14; (dose: 12.5 mg/kg/injection, vehicle: saline with Tween-80) 8 of 10 on day 14; under setting [2], 0 of 10 on day 14.

`[Cl][Mn][Cl]`: under setting [9], the survivor count is 0 of 10 on day 14.

As to `Nc1nc2n[nH]nc2c(=O)[nH]1`, the T/C (dose: 100.0 mg/kg/injection, vehicle: suspension in saline) was 125 % of control. The survivor count by setting is: (dose: 400.0 mg/kg/injection, vehicle: suspension in saline) 7 of 10 on day 9; (dose: 800.0 mg/kg/injection, vehicle: suspension in saline) 7 of 10 on day 9.

For `CO[C@@]12[C@@H]3N[C@@H]3CN1C1=C(C(=O)C(NCC3CCCO3)=C(C)C1=O)[C@@H]2COC(N)=O` (stereo partly specified), the T/C (dose: 6.0 mg/kg/injection, vehicle: distilled water + Tween-80) was 136 % of control.

Regarding `COc1ccc(O)cc1`, the survivor count under setting [4] is 3 of 10 on day 14.

`CC(C)NC(=O)OCc1c(COC(=O)NC(C)C)c(-c2ccc(Cl)c(Cl)c2)n2c1CCC2`: the survivor count is 5 of 10 on day 14 (dose: 500.0 mg/kg/injection, vehicle: saline with Tween-80); 0 of 10 on day 14 (dose: 833.33 mg/kg/injection, vehicle: saline with Tween-80); 1 of 10 on day 14 (dose: 1200.0 mg/kg/injection, vehicle: saline with Tween-80).

In the case of `Cc1ccc2c(c1)C1(C)OC(C=CC1=O)O2` (stereo unspecified), the survivor count under setting [10] is on record as 0 of 10 on day 14, the survivor count under setting [11] is reported as 0 of 10 on day 14 and the survivor count under setting [12] is on record as 0 of 10 on day 14.

Consider `CCOc1ccc(C(C)c2cc3c(cc2OC)OCO3)cc1` (stereo unspecified), for which the T/C (dose: 250.0 mg/kg/injection, vehicle: distilled water + Tween-80) was 125 % of control. The survivor count (dose: 500.0 mg/kg/injection, vehicle: distilled water + Tween-80) was 6 of 10 on day 14 (2×) and the survivor count (dose: 1000.0 mg/kg/injection, vehicle: distilled water + Tween-80) is 0 of 10 on day 14 (2×).

On to `O=C(O)c1ccc(NC(=O)C2C(=O)C(=O)N(c3ccc(C(=O)O)cc3)C2=O)cc1` (stereo unspecified), for which, where the note is “dose: 800.0 mg/kg/injection, vehicle: Klucel + Tween-80”, the survivor count is given as 2 of 10 on day 14.

In the case of `O=NNc1cnccn1`, the T/C (dose: 25.0 mg/kg/injection, vehicle: water) was 126 and 129 % of control. Moreover, the survivor count (dose: 100.0 mg/kg/injection, vehicle: water) is on record as 7 of 10 on day 14 and the survivor count (dose: 200.0 mg/kg/injection, vehicle: water) is reported as 0 of 10 on day 14.

Consider `c1ccc(P(CCNCCP(c2ccccc2)c2ccccc2)c2ccccc2)cc1`, for which the survivor count reads like this: under setting [3], 4 of 10 on day 14; under setting [4], 0 of 10 on day 14.

Consider `COc1ccc([N+](=O)[O-])cc1NC(=O)C1C(=O)C(=O)N(c2cc([N+](=O)[O-])ccc2OC)C1=O` (stereo unspecified), for which the survivor count is listed as 6 of 10 on day 14 under setting [12] and 1 of 10 on day 14 (dose: 800.0 mg/kg/injection, vehicle: Klucel (hydroxypropylcellulose) (HPC)).

As for `N=C(N)Sc1ccccn1`, the survivor count by setting is: (dose: 500.0 mg/kg/injection, vehicle: saline) 7 of 10 on day 14; (dose: 1000.0 mg/kg/injection, vehicle: saline) 0 of 10 on day 14.

For the compound `CCC1OCC(C(Cl)CCl)O1` (stereo unspecified), the survivor count reads like this: under setting [4], 10 of 10 on day 14; (dose: 800.0 mg/kg/injection, vehicle: saline with Tween-80) 2 of 10 on day 14.

Regarding `Cc1nc2ccccc2c(N)c1-c1cc(C)c2c(C)nc3ccccc3c2n1`, the survivor count is, setting by setting: (dose: 50.0 mg/kg/injection, vehicle: Klucel (hydroxypropylcellulose) (HPC)) 10 of 10 on day 14; under setting [10], 10 of 10 on day 14; under setting [11], 10 of 10 on day 14; under setting [12], 10 of 10 on day 14.

For the compound `O=[N+]([O-])c1ccc([I+]c2ccccc2)cc1`, the survivor count under setting [10] was 5 of 10 on day 9.

Regarding `CN1CCc2c(c3ccccc3c3ccccc23)C1`, the survivor count runs as follows: (dose: 300.0 mg/kg/injection, vehicle: Klucel (hydroxypropylcellulose) (HPC)) 0 of 10 on day 14; (dose: 600.0 mg/kg/injection, vehicle: Klucel (hydroxypropylcellulose) (HPC)) 0 of 10 on day 14; (dose: 1200.0 mg/kg/injection, vehicle: Klucel (hydroxypropylcellulose) (HPC)) 0 of 10 on day 14.

In the case of `CC(C)N1C(=O)N(Cl)C2C1N(Cl)C(=O)N2Cl` (stereo unspecified), the survivor count is on record as 3 of 10 on day 14 under setting [7]; 0 of 10 on day 14 under setting [9]; 0 of 10 on day 14 (dose: 400.0 mg/kg/injection, vehicle: saline); 0 of 10 on day 14 (dose: 800.0 mg/kg/injection, vehicle: saline).
